Laboratory results published in PubChem BioAssay AID2685 (National Center for Advancing Translational Sciences (NCATS), 2010).
The whole screen tested about 320,000 compounds, of which about 2,100 (0.66%) were called active. Inconclusive means that the source gave no clear call. Such entries were picked first, then a sample of the others. Calls follow the shape of the dose curve; as a rule, active = well fitted inhibition curve with a large enough effect in the signal ratio, with a control signal flat (not every such curve was filed as active); inconclusive = small, poorly fitted or top-dose-only effect, or effect the other way, or a change in a side signal; inactive = flat fitted curve, though single readings scatter; the % refers to the signal ratio. Potencies of inconclusive entries are doubtful fits and often do not repeat.

Experiment: qHTS Assay for Lipid Storage Modulators in Drosophila S3 Cells
Conditions: BODIPY lipid droplet fluorescence, 18-24 h, cells fed with added oleic acid; lipid storage change, negative = inhibition: at 46.1 µM (top of the series) unless noted
Procedure, shortened: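 Laser-scanning cytometry quantifies lipid droplet accumulation (500–530 nm total intensity; droplet/cell object ratio) in oleic acid-fed (400 uM added) Drosophila S3 cells treated with a concentration series. 20 uM Triacsin C defined 100% inhibition.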
% is scaled to controls: 0 for no effect and ±100 for the full control effect; potency is read from the fitted curve at half-maximal effect.

SMILES | Potency | lipid storage change, negative = inhibition
O=C(O)CC1S/C(=N/N=C/C=C/c2ccccc2[N+](=O)[O-])NC1=O (stereo not drawn) | inconclusive: 0.58 µM [falling, single point] | 
CC(=O)N1C(C(=O)O)Cc2c([nH]c3ccccc23)C1C (stereo not drawn) |  | inconclusive: 26.5%
COc1cc2ccccc2cc1C(=O)NC(=S)Nc1cc(C(=O)O)ccc1C |  | inactive: -1.68%
CC1Cc2ccccc2N1C(=O)c1ccc2c(c1)nnn2C (stereo not drawn) | inconclusive: 0.651 µM [activator, full curve, poor fit] | 
O=C(O)C1CCN(c2nc(-c3ccccc3)nc3c2oc2ccccc23)CC1 |  | inconclusive: -70.8%
CCOC(=O)C(C)Sc1nc2ccccc2c(=O)n1CC1CCCCC1 (stereo not drawn) | inconclusive: 4.11 µM [rising, single point] | 
CC(Oc1ccc(C(C)(C)C)cc1)C(=O)NCC(c1ccco1)N1CCCC1 (stereo not drawn) |  | inconclusive: -6.57%
Cc1cc(N/N=C/c2ccccc2O)nc(-c2ccccc2O)n1 | inconclusive: 29.1 µM [falling, single point] | 
OC(CCc1ccncc1)COc1ccccc1 (stereo not drawn) | inconclusive: 6.51 µM [activator, single point] | 
O=C(Nc1cccc2ccccc12)c1cc2c(cc1Br)OCO2 |  | inconclusive: 10.5%
COc1ccc(CNC(=O)CSc2nc(-c3ccccc3)cc(-c3cccs3)c2C#N)cc1 | inconclusive: 0.259 µM [rising, full curve] | 
O=C(Nc1ccccc1O)c1ccc(Cl)cc1 | inconclusive: 29.1 µM [falling, single point] | 
COC(=O)CSc1ncnc2c1cnn2Cc1ccccc1 |  | inconclusive: 12.3%
CCOC(=O)/C=C1\CN(Cc2cc(OC)c(OC)c(OC)c2)S(=O)(=O)c2ccc(C(F)(F)F)cc21 |  | inconclusive: -30.3%
Cc1cc(NC(=O)CSc2nc3c([nH]c4ccccc43)c(=O)n2-c2ccccc2F)no1 |  | inconclusive: 32.7%
CCOC(=O)c1cc(-c2ccc(C#N)cc2)nc2c1c(C)nn2CCC#N | inconclusive: 6.51 µM [activator, partial curve] | 
CCCC1=Nc2cc(C(=O)NCCN3CCOCC3)ccc2Sc2ccc(C)cc21 |  | inconclusive: -190%
CC(=O)Nc1ccc(NC(=O)c2c(C)nn(Cc3ccccc3Cl)c2C)cc1 | inconclusive: 23.1 µM [activator, partial curve, poor fit] | 
Cc1cc(NC(=O)CSCC(=O)Nc2ccccc2Oc2ccccc2)no1 |  | inconclusive: 47.6%
COc1ccc(N=Cc2c(O)cc(C)oc2=O)cc1 |  | inconclusive: 15.6% [at 9.22 µM]
CCOC(=O)C(NC(C)=O)(Nc1cccc(F)c1)C(F)(F)F (stereo not drawn) | active: 4.11 µM | 
COc1ccc2nc(N3CCN(C(=O)c4ccc([N+](=O)[O-])o4)CC3)sc2c1 | active: 4.61 µM | 
Cc1nc(N2CCN(c3ccccc3)CC2)nc2c1C(=O)CC(C)C2 (stereo not drawn) | inconclusive: 4.11 µM [activator, single point] | 
O=C1CSc2ccc(S(=O)(=O)NCc3ccc(F)cc3)cc2N1 | inconclusive: 29.1 µM [activator, single point] | 
O=C(CSc1nc2nn(-c3ccccc3)c(=O)c-2c2n1CCCCC2)Nc1ccccc1[N+](=O)[O-] | inconclusive: 0.116 µM [falling, partial curve, poor fit] | 

SMILES | Potency | lipid storage change, negative = inhibition
Cc1ccsc1C(=O)NCCc1ccc(S(N)(=O)=O)cc1 |  | inconclusive: 220%
Cc1ccc(C(=O)Nc2ccc(S(=O)(=O)N3CCc4ccccc43)cc2)o1 |  | inconclusive: 12.5%
Cc1ccc(/C=N/NC(=O)c2ccc(N(C)S(=O)(=O)c3ccccc3)cc2)cc1 | inconclusive: 29.1 µM [falling, partial curve, poor fit] | 
COc1ccc(OC)c(S(=O)(=O)N(C)CC(=O)O)c1 | inconclusive: 3.66 µM [activator, single point] | 
O=C(Cn1cnc2c(oc3nc4c(cc32)CCCC4)c1=O)Nc1ccccc1 |  | inconclusive: 29.1%
O=C(N/N=C/c1ccc(-c2cccc([N+](=O)[O-])c2)o1)[C@H]1C[C@@H]1c1ccccc1 |  | inconclusive: -61.3%
O=S(=O)(NCCCN1CCOCC1)c1ccc(Cl)s1 |  | inconclusive: 7.42%
Cc1cc(-c2ccc(C)c(S(=O)(=O)N3CC(=O)Nc4ccccc43)c2)on1 | active: 1.03 µM | 
CCOc1cccc(CN2CCN(CCCc3ccccc3)C(CCO)C2)c1O (stereo not drawn) |  | inconclusive: -58.3%
CCOc1ccc(S(=O)(=O)N(C)C)cc1-c1nc2c(C(C)(C)C)nn(C)c2c(=O)[nH]1 | inconclusive: 3.66 µM [rising, single point] | 
NC1=NC(c2ccc(F)cc2)n2c(nc3ccccc32)N1 (stereo not drawn) |  | inconclusive: 1.53%
COc1ccc(OC)c2[nH]c(=O)c(CCNC(=O)COc3ccccc3)cc12 |  | inconclusive: -20.2%
Cc1ccc2ncccc2c1NC(=S)NC(=O)c1ccccc1 |  | inconclusive: 15.6%
CN1CCN(C(=S)NC(=O)c2ccccc2Br)CC1 | inconclusive: 29.1 µM [falling, single point] | 
CCc1cccc(Nc2c([N+](=O)[O-])cc(C(=O)N3CC(=O)Nc4ccccc43)cc2[N+](=O)[O-])c1 |  | inconclusive: -5.83%
Cc1cc(=O)oc2cc(OCc3nnc(-c4ccccc4Br)o3)ccc12 | inconclusive: 6.51 µM [falling, single point] | 
CC(=O)c1c(C)[nH]c(C(=O)OC(C)C(=O)Nc2cc(S(=O)(=O)N3CCCCC3)ccc2Cl)c1C (stereo not drawn) |  | inconclusive: 27.8%
CSc1ccccc1OCc1cc(C(=O)N(C)C2CCCc3ccccc32)no1 (stereo not drawn) | inconclusive: 9.2 µM [falling, partial curve] | 
Cc1ccc(C(C(=O)NC(C)(C)C)N(C(=O)CCC(=O)Nc2ccccn2)c2ccccc2F)cc1 (stereo not drawn) |  | inconclusive: -14.2%
Cc1ccc(-c2csc3ncnc(SCC(=O)Nc4nnc(C)s4)c23)cc1 | inconclusive: 3.26 µM [rising, full curve, poor fit] | 
Cc1cccc(C)c1Nc1nnc(SCC(=O)Nc2cc(S(=O)(=O)N3CCCCC3)ccc2Cl)s1 |  | inconclusive: 17.3%
CCN(CC)S(=O)(=O)c1cc(-c2nnc(-c3ccc(Br)cc3)o2)ccc1Cl | inconclusive: 1.16 µM [activator, full curve] | 
C=CCNCCOCCSc1ccc(Cl)cc1 | inconclusive: 32.6 µM [activator, single point] | 
CC(C)=CCCC(C)CN(C)CCc1ccccn1 (stereo not drawn) | active: 18.4 µM | 
COCCN1C(=O)c2ccccc2C(C(=O)NCCCN2CCCC2)C1c1c[nH]c2ccccc12 (stereo not drawn) |  | inconclusive: 9.34%

Complete entries, looked up by structure.
`Cc1cc(NC(=O)CSc2nc3c([nH]c4ccccc43)c(=O)n2-c2ccccc2F)no1` in the list: lipid storage change, negative = inhibition: inconclusive: 32.7%
`CCOc1ccc(S(=O)(=O)N(C)C)cc1-c1nc2c(C(C)(C)C)nn(C)c2c(=O)[nH]1` in the list: Potency: inconclusive: 3.66 µM [rising, single point]
`O=C1CSc2ccc(S(=O)(=O)NCc3ccc(F)cc3)cc2N1` in the list: Potency: inconclusive: 29.1 µM [activator, single point]
`Cc1ccc(C(C(=O)NC(C)(C)C)N(C(=O)CCC(=O)Nc2ccccn2)c2ccccc2F)cc1` (stereo not drawn) in the list: lipid storage change, negative = inhibition: inconclusive: -14.2%

(further entries)

SMILES | Potency | lipid storage change, negative = inhibition
COCc1nnc(NS(=O)(=O)c2ccc(C)cc2)s1 |  | inactive: 5.32%
C/C(CC(=O)NCc1ccco1)=N\NC(=O)c1ccc([N+](=O)[O-])cc1Cl | inconclusive: 20.6 µM [falling, single point] | 
Cc1ccc2nc(Nc3nc(CSc4nnnn4-c4ccccc4)cc(=O)[nH]3)nc(C)c2c1 | inconclusive: 6.51 µM [rising, single point] | 
COC(=O)c1cc(S(=O)(=O)N(C)C2CCCCC2)cn1C |  | inconclusive: -60.7%
C[C@@H]1NC(=O)[C@@]2(C)[C@@H](c3ccccc3)[C@H]3COc4ccccc4[C@@H]3N2C1=O |  | inconclusive: 50.3%
Cc1cc(/C=C2\Cc3ccccc3C2=O)c(C)n1-c1ccccc1 | inconclusive: 0.0517 µM [activator, full curve] | 
CN(C)CCCNCCCNC(=O)c1ccncc1 |  | inactive: -3.34%
CC(C)c1cc(C(=O)N2CCCC(CCC(=O)N3CCN(c4ccccn4)CC3)C2)no1 (stereo not drawn) |  | inconclusive: 18.8%
COc1cccc(NC(=O)c2cc(-c3ccncc3)nc3c(C)cc(C)cc23)c1 |  | inconclusive: 113%
CSCC(C)N1CCC(CO)(CCCc2ccccc2)CC1 (stereo not drawn) |  | inconclusive: -20.4%
O=c1[nH]c(C2CCN(S(=O)(=O)c3ccccc3)CC2)nc2c1nnn2Cc1ccccc1 | inconclusive: 20.6 µM [falling, single point] | 
CSc1ccccc1COC(=O)Nc1ccccc1C |  | inconclusive: -13.6%
O=[N+]([O-])c1cc([N+](=O)[O-])c(Oc2c(F)ccc(F)c2F)cc1NN1CCCCC1 |  | inactive: 27.8%
O=C(CSc1nnc(SCc2ccc(Cl)cc2)s1)N/N=C/c1ccccc1C(=O)O |  | inconclusive: 19.7%
Cc1ccc(CN(C(=O)c2cccs2)C2CCS(=O)(=O)C2)cc1 (stereo not drawn) |  | inconclusive: 2.83%
Fc1cccc(Cl)c1CNc1ccc(N2CCCC2)cc1 |  | inconclusive: -12%
Oc1ccc(/C=N/Nc2ncnc3c2ncn3Cc2ccccc2)cc1O | inconclusive: 29.1 µM [falling, partial curve, poor fit] | 
COCC(C)n1c(C)cc(C(=O)COC(=O)c2n[nH]c3ccccc23)c1C (stereo not drawn) | inconclusive: 6.51 µM [activator, single point] | 
Cc1nn(C)c(C(=O)Sc2cccc(Cl)c2)c1[N+](=O)[O-] | inconclusive: 1.3 µM [falling, partial curve] | 
CCN(CC)CCN1C(=O)C(O)=C(C(=O)c2cc3ccccc3o2)C1c1cccnc1 (stereo not drawn) |  | inconclusive: 17.5%
O=C(CCC(=O)Nc1ccc(F)cc1)N/N=C/c1c[nH]c2ccccc12 |  | inconclusive: -15.6%
Cn1c(C(=O)OC(C(=O)NCc2ccco2)c2ccncc2)cc2sccc21 (stereo not drawn) |  | inconclusive: -17.6%
CCCNC(=O)c1ccc2c(c1)nc(C)n2-c1cccc(C)c1 |  | inconclusive: 9.69%
